Positions count from the first letter of the chain named. No constants are given. Whether binding was seen depends on the method and setting. A result given as binding can be weak or reduced; the word gives no strength.
B1: h48D2 VH1:VL1 (antibody, human IgG1, kappa, L234A L235A, V domains shown)
VH: EVQLEESGGGLVKPGGSLRLSCAASGPSLSHFDITWVRQAPGKGLEWVSTISPGVSTYYASWAKSRFTISRDNSKNTLYLQMNSLRAEDTAVYYCARGGVGSSWKAFDLWGRGTLVTVSS
VL: DIVMTQSPSSLSASVGDRVTITCQASESISTALAWYQQKPGKAPKLLIYKASTLPSGVPSRFSGSGSGTDFTLTISSLQPEDFATYYCQQGFSSGNVHNAFGGGTKVVIKR
B2: h48D2 VH1:VL2 (antibody, human IgG1, kappa, L234A L235A, V domains shown)
VH: B1 VH
VL: B1 VL with D1Q, M4L, S9A, S10T, D70E, E81D, F83S, G103Q, V107L, V108E
B3: h48D2 VH1:VL3 (antibody, human IgG1, kappa, L234A L235A, V domains shown)
VH: B1 VH
VL: DILLTQTPSVVSASVGDRVTITCQASESISTALAWYQQKPGQAPRLLIYKASTLPSGVPSRFRGSGSGTDFTLTITSLQPEDFATYYCQQGFSSGNVHNAFGGGTRLEIKR
B4: h48D2 VH1:VL4 (antibody, human IgG1, kappa, L234A L235A, V domains shown)
VH: B1 VH
VL: B1 VL with D1E, I2L, L11V, S76N, V108E
B5: h48D2 VH1:VL5 (antibody, human IgG1, kappa, L234A L235A, V domains shown)
VH: B1 VH
VL: APVLTQSPATLEASVGDRVTITCQASESISTALAWYQQKPGQPPKLLIYKASTLPSGVPSRFSGSGSGTEFTLTISDLESDDAATYYCQQGFSSGNVHNAFGGGTEVVVKR
B6: h48D2 VH2:VL1 (antibody, human IgG1, kappa, L234A L235A, V domains shown)
VH: EVQLVESGGALVQPGGSLRLSCIVSGPSLSHFDITWFRQAPGKGLEWVATISPGVSTYYASWAKSRFTISTDTSKNTLFLQMDSLRAEDTAVYYCARGGVGSSWKAFDLWGPGTLVTVSS
VL: B1 VL
B7: h48D2 VH5.GL:VL4 (antibody, human IgG1, kappa, L234A L235A, V domains shown)
VH: QEQLEESGGGLVKPGGTLSLTCTVSGPSLSHFDITWIRQPPGKGLEWIGTISPGVSTYYASWAKSRVTISVDTSLNTVSLKLSSVTAADTATYFCARGGVGSSWKAFDLWGPGTLVTISS
VL: B1 VL with D1E, I2L, L11V, S76N, V108E
B8: 嵌合48D2 (antibody, V domains shown)
VH: QEQLEESGGGLVKPGGSLTLTCTVSGPSLSHFDITWVRQAPGSGLEWIGTISPGVSTYYASWAKSRSTITSNTNLNTVTLKMTSLTAADTATYFCARGGVGSSWKAFDLWGPGTLVTISS
VL: APVLTQTPASVEVAVGGTVTIKCQASESISTALAWYQQKPGQPPKLLIYKASTLPSGVSSRFKGSGSGTEFALTISDLECDDAATYYCQQGFSSGNVHNAFGGGTEVVVK

Biological target: hIL1RAP(21-367) (人)
Experiment: BLI (BLItz), protein A sensor

binding, binds:
B1, B2, B3, B4, B5, B6, B7, B8

Biological target: hIL1RAP(21-367) (人)
Experiment: ELISA on coated IL1RAP orthologs

binding, binds:
B7, B8

Biological target: hIL1RAP(21-367) (人)
Experiment: conclusion of Example 10 (ELISA, BLI)

binding, binds:
B8

Biological target: hIL1RAP(21-367) (人)
Experiment: binding ELISA, coated hIL1RAP aa21-367

binding, binds:
B1, B2, B3, B4, B5, B6, B7

From CN116724055A
